Normalised response data for four compounds are collected here from the supplement of paper PMC4862054.

Most entries show no effect beyond the scatter of the controls.

What all share (test): normalised response (% of control), CellTox Green; higher = less cell death (100 = DMSO, 0 = benzethonium chloride kill control)
Holding throughout (conditions): incubation time: 72 h

The test system of one experiment is BT-474. The method, then: (§1)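 DSRT, 72 h incubation, CellTox Green / CellTiter-Glo readout. Signal is normalised to DMSO and benzethonium chloride controls. Value is the normalised response at the lowest tested concentration.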
A further experiment concerns BT-549. Here is the method: as §1
The test system of a further experiment is CAL-120. The method, then:
as §1

The subject of the next experiment is CAL-148. The method, then: as §1
For the next experiment, the system named is CAL-51. The method, then: as §1
Another experiment concerns CAL-85-1. Here is the method: as §1
The next experiment concerns DU-4475. Here is the method:
as §1

A further experiment concerns HCC1143. Here is the method: as §1
The subject of another experiment is HCC1599. The method, then: as §1
The next experiment relates to HDQ-P1. Here is the method:
as §1

The next experiment has as its system MCF-10A. Here is the method:
as §1

The next experiment has as its system MDA-MB-231. Here is the method:
as §1

Another experiment deals with MDA-MB-436. Here is the method: as §1
A further experiment relates to MDA-MB-453. Here is the method: as §1
Another experiment concerns MDA-MB-468. The method, then: as §1
A further experiment relates to MFM-223. Here is the method: as §1
The next experiment relates to Hs578T. The method, then: as §1

With `O=C(/C=C/c1cccnc1)NCCCCC1CCN(C(=O)c2ccccc2)CC1` [Daporinad] (0.1 nM), the normalised response stood at 100% in the experiment with BT-474; 91.1% with BT-549; 100% with CAL-120; 105% in the experiment with CAL-148; 116% with CAL-51; 104% with CAL-85-1. Moreover, the normalised response in the experiment on DU-4475 came to 101%; in the experiment with HCC1143 it was 117%; in the experiment with HCC1599, 88.6%; in the experiment on HDQ-P1, 95.5%; with MCF-10A it was 91%; in the experiment with MDA-MB-231, 101%. Also, the normalised response was found to be 86.8% in the experiment with MDA-MB-436, 95% in the experiment with MDA-MB-453, 121% in the experiment on MDA-MB-468 and 102% in the experiment on MFM-223.

As to `Cn1cc(C2=C(c3cn(C4CCN(Cc5ccccn5)CC4)c4ccccc34)C(=O)NC2=O)c2ccccc21` [Enzastaurin] (1 nM), the normalised response in the experiment on BT-474 is 95.9%; in the experiment with BT-549 it was 97.5%; in the experiment with CAL-120 it was 96.4%; in the experiment with CAL-148, 104%; in the experiment with CAL-51, 92%; in the experiment on CAL-85-1, 108%. Also, the normalised response with DU-4475 amounted to 99.9%; with HCC1143, 110%; in the experiment with HCC1599, 101%; with HDQ-P1, 98.4%; in the experiment on Hs578T it was 102%; in the experiment on MCF-10A it was 98.2%. In addition, the normalised response in the experiment with MDA-MB-231 was 98.6%; in the experiment with MDA-MB-436 it was 88.4%; in the experiment with MDA-MB-453 it was 111%; with MDA-MB-468, 116%; in the experiment on MFM-223, 97.5%.

In the case of `CC(C)N(CCCNC(=O)Nc1ccc(C(C)(C)C)cc1)C[C@H]1O[C@@H](n2cc(Br)c3c(N)ncnc32)[C@H](O)[C@@H]1O` [SGC0946] (1 nM), the normalised response with BT-474 was found to be 96.9%; in the experiment with BT-549, 99.3%; in the experiment with CAL-120, 101%; in the experiment on CAL-148 it was 96.2%; with CAL-51, 75.2%; in the experiment on CAL-85-1, 97.5%. In addition, the normalised response was 97.3% in the experiment on DU-4475; 113% in the experiment on HCC1143; 102% in the experiment on HCC1599; 101% in the experiment on HDQ-P1; 95.9% in the experiment on MCF-10A; 98.6% with MDA-MB-231. The normalised response came out at 80.5% with MDA-MB-436, 84.3% in the experiment on MDA-MB-453, 88.2% in the experiment with MDA-MB-468 and 105% in the experiment with MFM-223.

As for `CC(=O)Nc1cccc(-n2c(=O)n(C3CC3)c(=O)c3c(Nc4ccc(I)cc4F)n(C)c(=O)c(C)c32)c1` [Trametinib] (0.025 nM), the normalised response with BT-474 is 103%; with CAL-120, 94.5%; in the experiment on CAL-148 it was 108%; with CAL-51, 126%; in the experiment on CAL-85-1, 106%; with DU-4475, 100%. Also, the normalised response turned out to be 120% with HCC1143; 99.1% in the experiment on HCC1599; 104% in the experiment on Hs578T; 106% in the experiment with MDA-MB-231; 83.1% in the experiment on MDA-MB-436; 109% with MDA-MB-453. The figures for the normalised response in the experiment with MDA-MB-468 and in the experiment with MFM-223 were 81% and 101%, respectively.
